# According to the supplement of paper PMC12823440, “Inhibitors supercharge kinase turnover through native proteolytic circuits” (Nature, 2025):
# Chains of the proteins cited; added tags and fusions are not shown. Lines headed by an entry give the natural chain unless they say otherwise; changes in a name come on top.
# UniProt P07949, whole entry, looked up: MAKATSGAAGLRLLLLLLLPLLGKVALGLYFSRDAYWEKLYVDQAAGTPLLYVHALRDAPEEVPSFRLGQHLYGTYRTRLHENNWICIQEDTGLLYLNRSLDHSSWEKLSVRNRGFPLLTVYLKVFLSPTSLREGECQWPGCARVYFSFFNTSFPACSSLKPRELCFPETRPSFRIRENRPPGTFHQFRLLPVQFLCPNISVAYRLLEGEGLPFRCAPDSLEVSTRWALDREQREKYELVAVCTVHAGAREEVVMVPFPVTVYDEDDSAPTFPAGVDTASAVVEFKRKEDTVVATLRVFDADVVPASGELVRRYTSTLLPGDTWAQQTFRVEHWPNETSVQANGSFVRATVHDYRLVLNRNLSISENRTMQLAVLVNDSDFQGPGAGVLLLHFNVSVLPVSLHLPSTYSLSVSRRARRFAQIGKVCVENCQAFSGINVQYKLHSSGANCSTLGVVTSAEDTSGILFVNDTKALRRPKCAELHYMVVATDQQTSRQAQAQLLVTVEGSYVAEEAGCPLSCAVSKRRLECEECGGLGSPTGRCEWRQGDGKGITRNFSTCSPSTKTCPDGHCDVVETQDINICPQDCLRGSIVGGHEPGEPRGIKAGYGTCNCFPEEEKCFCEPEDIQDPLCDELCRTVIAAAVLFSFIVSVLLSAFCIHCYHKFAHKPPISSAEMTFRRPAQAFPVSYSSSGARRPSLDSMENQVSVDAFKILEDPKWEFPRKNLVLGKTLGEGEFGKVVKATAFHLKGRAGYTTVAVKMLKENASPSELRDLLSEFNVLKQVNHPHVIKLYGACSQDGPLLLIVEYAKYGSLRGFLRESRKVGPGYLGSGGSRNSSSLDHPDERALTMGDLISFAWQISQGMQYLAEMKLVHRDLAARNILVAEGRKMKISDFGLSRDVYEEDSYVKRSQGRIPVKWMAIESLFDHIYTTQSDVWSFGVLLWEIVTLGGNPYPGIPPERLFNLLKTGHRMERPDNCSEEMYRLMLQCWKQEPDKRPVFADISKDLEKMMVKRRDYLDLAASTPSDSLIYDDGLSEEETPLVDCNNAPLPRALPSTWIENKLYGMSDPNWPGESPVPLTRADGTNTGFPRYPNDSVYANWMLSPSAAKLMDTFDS
# UniProt Q9BRS2: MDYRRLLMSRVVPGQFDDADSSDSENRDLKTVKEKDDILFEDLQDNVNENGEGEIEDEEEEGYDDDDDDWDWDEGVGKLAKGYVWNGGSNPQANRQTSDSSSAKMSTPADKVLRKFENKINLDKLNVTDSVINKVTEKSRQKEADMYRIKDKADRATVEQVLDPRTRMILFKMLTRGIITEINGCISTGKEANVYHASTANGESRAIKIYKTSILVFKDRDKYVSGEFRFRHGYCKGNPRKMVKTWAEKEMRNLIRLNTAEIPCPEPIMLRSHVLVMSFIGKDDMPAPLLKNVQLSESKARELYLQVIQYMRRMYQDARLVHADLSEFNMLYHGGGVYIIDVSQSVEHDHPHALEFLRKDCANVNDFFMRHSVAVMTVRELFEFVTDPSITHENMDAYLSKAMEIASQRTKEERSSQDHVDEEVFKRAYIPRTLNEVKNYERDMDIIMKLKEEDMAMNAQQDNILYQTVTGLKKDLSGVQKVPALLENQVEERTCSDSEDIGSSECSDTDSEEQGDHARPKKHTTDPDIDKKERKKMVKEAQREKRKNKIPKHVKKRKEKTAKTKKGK
# UniProt Q01974, whole entry: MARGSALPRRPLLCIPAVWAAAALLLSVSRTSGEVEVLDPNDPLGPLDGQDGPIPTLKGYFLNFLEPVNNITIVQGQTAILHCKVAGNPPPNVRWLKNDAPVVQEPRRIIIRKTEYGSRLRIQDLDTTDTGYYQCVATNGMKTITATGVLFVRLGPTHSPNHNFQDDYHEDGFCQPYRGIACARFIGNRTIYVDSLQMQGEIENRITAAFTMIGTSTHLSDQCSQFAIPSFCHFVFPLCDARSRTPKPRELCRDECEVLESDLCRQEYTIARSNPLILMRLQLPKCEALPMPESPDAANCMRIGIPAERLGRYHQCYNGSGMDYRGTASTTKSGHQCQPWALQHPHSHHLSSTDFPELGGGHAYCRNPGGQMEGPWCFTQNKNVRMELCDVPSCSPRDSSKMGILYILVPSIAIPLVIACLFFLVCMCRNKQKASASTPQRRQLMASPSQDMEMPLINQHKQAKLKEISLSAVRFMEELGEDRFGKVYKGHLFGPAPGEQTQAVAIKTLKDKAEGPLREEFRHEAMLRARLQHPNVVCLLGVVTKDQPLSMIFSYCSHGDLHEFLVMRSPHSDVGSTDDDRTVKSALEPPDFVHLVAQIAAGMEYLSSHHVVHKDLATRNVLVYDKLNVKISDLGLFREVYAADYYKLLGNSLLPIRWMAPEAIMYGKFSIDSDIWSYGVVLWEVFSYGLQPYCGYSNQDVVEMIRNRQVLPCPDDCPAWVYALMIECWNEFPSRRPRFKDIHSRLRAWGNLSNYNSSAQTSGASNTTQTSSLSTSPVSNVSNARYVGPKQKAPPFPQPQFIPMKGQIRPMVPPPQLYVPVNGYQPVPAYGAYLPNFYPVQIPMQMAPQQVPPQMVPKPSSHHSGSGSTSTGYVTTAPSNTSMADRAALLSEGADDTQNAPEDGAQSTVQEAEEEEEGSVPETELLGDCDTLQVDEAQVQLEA
# UniProt Q9Y6E0: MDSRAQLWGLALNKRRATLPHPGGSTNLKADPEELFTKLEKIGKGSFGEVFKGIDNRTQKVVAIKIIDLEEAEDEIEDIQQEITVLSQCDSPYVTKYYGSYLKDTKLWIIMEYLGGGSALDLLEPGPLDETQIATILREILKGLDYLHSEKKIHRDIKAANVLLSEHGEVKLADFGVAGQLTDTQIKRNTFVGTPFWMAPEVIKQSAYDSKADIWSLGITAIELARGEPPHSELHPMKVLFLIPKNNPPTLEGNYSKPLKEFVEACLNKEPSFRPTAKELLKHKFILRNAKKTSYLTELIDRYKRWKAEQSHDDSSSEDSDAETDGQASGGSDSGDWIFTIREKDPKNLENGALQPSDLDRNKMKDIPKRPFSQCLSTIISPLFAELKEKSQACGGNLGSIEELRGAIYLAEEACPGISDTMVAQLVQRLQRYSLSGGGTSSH
# UniProt P29597: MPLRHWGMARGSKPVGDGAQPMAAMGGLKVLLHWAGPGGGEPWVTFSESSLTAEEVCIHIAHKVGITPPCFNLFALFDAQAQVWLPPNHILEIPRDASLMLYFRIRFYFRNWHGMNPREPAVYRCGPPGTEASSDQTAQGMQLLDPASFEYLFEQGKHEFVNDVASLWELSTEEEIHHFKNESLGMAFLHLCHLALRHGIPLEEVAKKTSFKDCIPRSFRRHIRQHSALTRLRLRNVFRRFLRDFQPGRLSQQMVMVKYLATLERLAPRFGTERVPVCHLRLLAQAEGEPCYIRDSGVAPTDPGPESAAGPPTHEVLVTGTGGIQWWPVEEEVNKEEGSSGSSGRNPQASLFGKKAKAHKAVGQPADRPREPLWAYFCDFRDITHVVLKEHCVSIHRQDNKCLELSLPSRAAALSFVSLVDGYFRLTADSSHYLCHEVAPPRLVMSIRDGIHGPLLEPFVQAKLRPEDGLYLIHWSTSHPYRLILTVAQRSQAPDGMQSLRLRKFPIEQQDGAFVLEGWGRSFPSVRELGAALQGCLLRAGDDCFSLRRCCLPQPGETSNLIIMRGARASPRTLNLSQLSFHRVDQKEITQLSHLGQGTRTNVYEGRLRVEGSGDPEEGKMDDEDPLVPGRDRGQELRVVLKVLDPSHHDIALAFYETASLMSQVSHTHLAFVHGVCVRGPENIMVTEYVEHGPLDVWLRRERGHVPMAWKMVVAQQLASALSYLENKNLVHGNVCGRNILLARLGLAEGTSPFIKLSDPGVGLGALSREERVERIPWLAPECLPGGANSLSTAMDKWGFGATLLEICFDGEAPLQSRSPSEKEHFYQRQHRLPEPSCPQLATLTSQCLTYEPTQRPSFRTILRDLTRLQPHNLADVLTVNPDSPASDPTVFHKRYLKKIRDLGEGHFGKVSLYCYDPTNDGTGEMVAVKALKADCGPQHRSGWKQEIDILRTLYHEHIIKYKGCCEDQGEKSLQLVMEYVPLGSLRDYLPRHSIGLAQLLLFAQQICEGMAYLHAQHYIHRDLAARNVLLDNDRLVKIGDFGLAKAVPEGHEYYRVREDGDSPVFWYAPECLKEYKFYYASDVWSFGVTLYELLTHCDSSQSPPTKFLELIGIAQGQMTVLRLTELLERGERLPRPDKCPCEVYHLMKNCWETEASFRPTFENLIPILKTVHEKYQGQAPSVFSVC
# UniProt P07947, whole entry, looked up: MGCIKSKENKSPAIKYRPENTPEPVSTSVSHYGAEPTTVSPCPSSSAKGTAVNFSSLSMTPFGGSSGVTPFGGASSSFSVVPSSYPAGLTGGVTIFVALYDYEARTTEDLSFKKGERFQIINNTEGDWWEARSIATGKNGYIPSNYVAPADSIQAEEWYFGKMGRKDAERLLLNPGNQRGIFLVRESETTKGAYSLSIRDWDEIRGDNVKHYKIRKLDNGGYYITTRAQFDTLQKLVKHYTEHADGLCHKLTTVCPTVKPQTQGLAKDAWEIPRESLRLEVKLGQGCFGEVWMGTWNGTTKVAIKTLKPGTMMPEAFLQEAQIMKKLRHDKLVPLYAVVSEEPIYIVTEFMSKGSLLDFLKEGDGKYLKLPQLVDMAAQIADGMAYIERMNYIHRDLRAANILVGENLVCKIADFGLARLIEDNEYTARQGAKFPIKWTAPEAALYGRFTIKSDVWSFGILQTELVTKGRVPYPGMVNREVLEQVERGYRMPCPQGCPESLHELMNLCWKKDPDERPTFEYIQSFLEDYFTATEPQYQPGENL
# UniProt P43403: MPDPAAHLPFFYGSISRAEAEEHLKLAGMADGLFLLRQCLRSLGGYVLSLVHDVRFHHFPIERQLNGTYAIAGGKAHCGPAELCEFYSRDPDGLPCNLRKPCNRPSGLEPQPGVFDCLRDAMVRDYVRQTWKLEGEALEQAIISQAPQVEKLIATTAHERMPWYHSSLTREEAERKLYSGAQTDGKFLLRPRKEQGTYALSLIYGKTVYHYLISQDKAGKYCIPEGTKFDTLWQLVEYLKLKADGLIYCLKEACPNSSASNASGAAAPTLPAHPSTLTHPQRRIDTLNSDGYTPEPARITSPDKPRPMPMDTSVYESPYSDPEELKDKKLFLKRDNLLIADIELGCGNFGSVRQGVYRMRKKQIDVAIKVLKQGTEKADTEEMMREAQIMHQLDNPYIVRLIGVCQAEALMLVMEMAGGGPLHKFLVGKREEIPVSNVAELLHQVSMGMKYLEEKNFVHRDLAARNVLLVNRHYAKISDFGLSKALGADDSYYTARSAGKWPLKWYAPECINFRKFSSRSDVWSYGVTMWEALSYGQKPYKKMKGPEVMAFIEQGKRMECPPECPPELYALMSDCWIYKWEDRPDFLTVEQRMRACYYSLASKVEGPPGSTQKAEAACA
# UniProt P00519, whole entry: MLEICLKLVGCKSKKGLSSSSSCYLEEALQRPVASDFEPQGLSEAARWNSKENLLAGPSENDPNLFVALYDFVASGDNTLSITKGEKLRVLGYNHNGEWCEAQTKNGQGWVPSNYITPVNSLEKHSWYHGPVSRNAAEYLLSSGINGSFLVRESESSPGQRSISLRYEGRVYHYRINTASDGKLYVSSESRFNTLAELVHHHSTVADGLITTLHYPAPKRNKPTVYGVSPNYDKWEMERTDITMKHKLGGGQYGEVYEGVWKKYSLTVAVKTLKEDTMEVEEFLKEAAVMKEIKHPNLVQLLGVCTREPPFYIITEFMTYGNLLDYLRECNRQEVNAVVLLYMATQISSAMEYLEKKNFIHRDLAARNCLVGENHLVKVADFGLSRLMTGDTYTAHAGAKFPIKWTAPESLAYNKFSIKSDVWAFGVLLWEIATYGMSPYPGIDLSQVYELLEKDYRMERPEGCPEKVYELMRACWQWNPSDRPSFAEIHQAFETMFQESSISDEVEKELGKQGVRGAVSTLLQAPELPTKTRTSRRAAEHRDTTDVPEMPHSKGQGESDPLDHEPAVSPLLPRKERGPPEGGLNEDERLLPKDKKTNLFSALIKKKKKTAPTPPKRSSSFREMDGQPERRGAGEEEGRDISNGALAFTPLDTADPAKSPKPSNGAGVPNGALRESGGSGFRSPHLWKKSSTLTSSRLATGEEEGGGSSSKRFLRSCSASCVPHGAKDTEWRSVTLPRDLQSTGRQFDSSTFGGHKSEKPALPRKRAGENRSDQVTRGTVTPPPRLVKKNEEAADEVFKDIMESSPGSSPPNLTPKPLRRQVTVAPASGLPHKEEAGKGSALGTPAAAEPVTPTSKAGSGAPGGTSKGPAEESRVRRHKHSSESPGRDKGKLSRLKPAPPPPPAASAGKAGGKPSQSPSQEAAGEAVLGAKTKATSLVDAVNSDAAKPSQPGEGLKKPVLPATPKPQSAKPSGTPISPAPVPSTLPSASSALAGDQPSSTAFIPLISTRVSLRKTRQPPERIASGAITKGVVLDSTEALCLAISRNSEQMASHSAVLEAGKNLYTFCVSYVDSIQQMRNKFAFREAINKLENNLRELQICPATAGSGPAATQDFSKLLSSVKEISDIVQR
# Structures can show the parent of a compound that is named as a salt. The list shows a part of the results. Hit calls seldom repeat between salt and free forms of one compound.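 Kinases were expressed as nanoluciferase fusions in K562 cells and luminescence was read every 4 h between 2 and 18 h as percent of control, DMSO set to 100% and a positive control to 0%. A time point counts as decreased when the signal drops significantly (2 sigma). The hit call is the authors' own, does not follow from the count of time points alone, and its rule is not shown.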
# Tests used:
# Conditions in all cases: K562; 2-18 h
# [1] = biological target: RET (UniProt P07949); assay: kinase-Nluc reporter destabilization hit call (1 = scored as downregulated) (binary); higher = compound decreases kinase abundance
# [2] = biological target: RET_M918T (clone: RET_mut) (UniProt P07949); assay: as above
# [3] = biological target: RIOK1 (UniProt Q9BRS2); assay: as above
# [4] = biological target: RIPK1 (UniProt Q13546); assay: as above
# [5] = biological target: RIPK2 (UniProt O43353); assay: as above
# [6] = biological target: ROR2 (UniProt Q01974); assay: as above
# [7] = biological target: RPS6KA1 (UniProt Q15418); assay: as above
# [8] = biological target: SPHK1 (UniProt Q9NYA1); assay: as above
# [9] = biological target: SRC (UniProt P12931); assay: as above
# [10] = biological target: STK24 (UniProt Q9Y6E0); assay: as above
# [11] = biological target: STK38 (UniProt Q15208); assay: as above
# [12] = biological target: SYK (UniProt P43405); assay: as above
# [13] = biological target: TEC (UniProt P42680); assay: as above
# [14] = biological target: TYK2 (UniProt P29597); assay: as above
# [15] = biological target: ULK3 (UniProt Q6PHR2); assay: as above
# [16] = biological target: YES1 (UniProt P07947); assay: as above
# [17] = biological target: ZAK (UniProt Q9NYL2); assay: as above
# [18] = biological target: ZAP70 (UniProt P43403); assay: as above
# [19] = biological target: ABL1 (UniProt P00519); assay: number of time points (of 5) at which kinase-Nluc abundance scored as decreased, DMSO-normalised (count); higher = more persistent destabilization
# [20] = biological target: AKT1 (UniProt P31749); assay: as above
Structure (SMILES),kinase-Nluc reporter destabilization hit call [1],kinase-Nluc reporter destabilization hit call [2],kinase-Nluc reporter destabilization hit call [3],kinase-Nluc reporter destabilization hit call [4],kinase-Nluc reporter destabilization hit call [5],kinase-Nluc reporter destabilization hit call [6],kinase-Nluc reporter destabilization hit call [7],kinase-Nluc reporter destabilization hit call [8],kinase-Nluc reporter destabilization hit call [9],kinase-Nluc reporter destabilization hit call [10],kinase-Nluc reporter destabilization hit call [11],kinase-Nluc reporter destabilization hit call [12],kinase-Nluc reporter destabilization hit call [13],kinase-Nluc reporter destabilization hit call [14],kinase-Nluc reporter destabilization hit call [15],kinase-Nluc reporter destabilization hit call [16],kinase-Nluc reporter destabilization hit call [17],kinase-Nluc reporter destabilization hit call [18],number of time points [19],number of time points [20]
Cn1cc(Nc2nccc(N3C[C@H]4CC[C@@H](C3)N4C(=O)[C@@H]3CC3(F)F)n2)cn1 (10 µM),inactive: 0,inactive: 0,inactive: 0,inactive: 0,inactive: 0,inactive: 0,inactive: 0,inactive: 0,inactive: 0,inactive: 0,inactive: 0,inactive: 0,inactive: 0,inactive: 0,inactive: 0,inactive: 0,inactive: 0,inactive: 0,0,0
C[C@@H](c1ccc2nccn2c1)n1nnc2ncc(-c3cnn(C)c3)nc21 [Savolitinib] (10 µM),inactive: 0,inactive: 0,inactive: 0,inactive: 0,inactive: 0,inactive: 0,inactive: 0,inactive: 0,inactive: 0,inactive: 0,inactive: 0,inactive: 0,inactive: 0,inactive: 0,inactive: 0,inactive: 0,inactive: 0,inactive: 0,0,0
COc1ccc(Cl)cc1NC(=O)Nc1cc(C)nc2ccccc12 (2.5 µM),inactive: 0,inactive: 0,inactive: 0,inactive: 0,inactive: 0,inactive: 0,inactive: 0,inactive: 0,inactive: 0,inactive: 0,inactive: 0,inactive: 0,inactive: 0,inactive: 0,inactive: 0,inactive: 0,inactive: 0,inactive: 0,0,0
CC(C)(NS(=O)(=O)c1ccc2c(Cl)cnc(N=C(N)N)c2c1)C(=O)O (10 µM),inactive: 0,inactive: 0,inactive: 0,inactive: 0,inactive: 0,inactive: 0,inactive: 0,inactive: 0,inactive: 0,inactive: 0,inactive: 0,inactive: 0,inactive: 0,inactive: 0,inactive: 0,inactive: 0,inactive: 0,inactive: 0,0,0
Cc1ccc(-c2c(C(=O)CF)n(CCCO)c3ncnc(N)c23)cc1 (10 µM),inactive: 0,inactive: 0,inactive: 0,inactive: 0,inactive: 0,inactive: 0,inactive: 0,inactive: 0,inactive: 0,inactive: 0,inactive: 0,inactive: 0,inactive: 0,inactive: 0,inactive: 0,inactive: 0,inactive: 0,inactive: 0,0,0
CCc1cc(O)c(F)cc1-c1ccc2c(-c3nc4c([nH]3)CN(C3CCN(C)CC3)CC4)n[nH]c2c1 [JAK-IN-5 (hydrochloride)] (2 µM),inactive: 0,inactive: 0,inactive: 0,inactive: 0,inactive: 0,inactive: 0,inactive: 0,inactive: 0,inactive: 0,inactive: 0,inactive: 0,inactive: 0,inactive: 0,inactive: 0,inactive: 0,inactive: 0,inactive: 0,inactive: 0,4,0
O=C1c2ccc(Nc3ccc(F)cc3F)cc2CCc2ccc(OC[C@H](O)CO)cc21 [Skepinone-L] (2.5 µM),inactive: 0,inactive: 0,inactive: 0,inactive: 0,inactive: 0,inactive: 0,inactive: 0,inactive: 0,inactive: 0,inactive: 0,inactive: 0,inactive: 0,inactive: 0,inactive: 0,inactive: 0,inactive: 0,inactive: 0,inactive: 0,0,0
O=C(Nc1cccnc1)c1cc(C(=O)c2c(F)cccc2Br)c[nH]1 (10 µM),inactive: 0,inactive: 0,inactive: 0,inactive: 0,inactive: 0,inactive: 0,inactive: 0,inactive: 0,inactive: 0,inactive: 0,inactive: 0,inactive: 0,inactive: 0,inactive: 0,inactive: 0,inactive: 0,inactive: 0,inactive: 0,0,0
C[C@@]1(O)CCC[C@H]1n1c(=O)c(C(F)F)cc2cnc(NC3CCN(S(C)(=O)=O)CC3)nc21 (2.5 µM),inactive: 0,inactive: 0,inactive: 0,inactive: 0,inactive: 0,inactive: 0,inactive: 0,inactive: 0,inactive: 0,inactive: 0,inactive: 0,inactive: 0,inactive: 0,inactive: 0,inactive: 0,inactive: 0,inactive: 0,inactive: 0,0,0
Cc1ccc(S(=O)(=O)/C=C/C#N)cc1 (10 µM),inactive: 0,inactive: 0,inactive: 0,inactive: 0,inactive: 0,inactive: 0,inactive: 0,inactive: 0,inactive: 0,inactive: 0,inactive: 0,inactive: 0,inactive: 0,inactive: 0,inactive: 0,inactive: 0,inactive: 0,inactive: 0,0,0
CN(CC(=O)N(Cc1ccc(C2CCCCC2)cc1)c1ccc(C(=O)O)cc1)S(=O)(=O)c1c(F)c(F)c(F)c(F)c1F (2.5 µM),inactive: 0,inactive: 0,inactive: 0,inactive: 0,inactive: 0,inactive: 0,inactive: 0,inactive: 0,inactive: 0,inactive: 0,inactive: 0,inactive: 0,inactive: 0,inactive: 0,inactive: 0,inactive: 0,inactive: 0,inactive: 0,0,0
COc1ccc(-c2ccc3c(N4CCOC[C@@H]4C)nc(N4CCOC[C@@H]4C)nc3n2)cc1CO (2.5 µM),inactive: 0,inactive: 0,inactive: 0,inactive: 0,inactive: 0,inactive: 0,inactive: 0,inactive: 0,inactive: 0,inactive: 0,inactive: 0,inactive: 0,inactive: 0,inactive: 0,inactive: 0,inactive: 0,inactive: 0,inactive: 0,5,0
Cn1nccc1Nc1nccc(-c2cc3c(s2)C(C)(C)N(CCN2CCOCC2)C3=O)n1 (10 µM),inactive: 0,inactive: 0,inactive: 0,inactive: 0,inactive: 0,inactive: 0,inactive: 0,inactive: 0,inactive: 0,inactive: 0,inactive: 0,inactive: 0,inactive: 0,inactive: 0,inactive: 0,inactive: 0,inactive: 0,inactive: 0,0,0
CC(C)CN(CC(=O)N1CCN(CC(OCc2ccc3ccccc3c2)c2ccc(Cl)cc2Cl)CC1)CC(C)C (stereo not given) [LYN-1604 (dihydrochloride)] (2.5 µM),inactive: 0,inactive: 0,inactive: 0,inactive: 0,inactive: 0,inactive: 0,inactive: 0,inactive: 0,inactive: 0,inactive: 0,inactive: 0,inactive: 0,inactive: 0,inactive: 0,inactive: 0,inactive: 0,inactive: 0,inactive: 0,0,0
COc1ccc(C(=O)Nc2sc3c(c2C(N)=O)CCCC3)cc1OC (10 µM),inactive: 0,inactive: 0,inactive: 0,inactive: 0,inactive: 0,inactive: 0,inactive: 0,inactive: 0,inactive: 0,inactive: 0,inactive: 0,inactive: 0,inactive: 0,inactive: 0,inactive: 0,inactive: 0,inactive: 0,inactive: 0,0,0
Nc1ncc(-c2cccc(N3CCNCC3)c2)cc1C(=O)Nc1ccncc1 [PKC-iota inhibitor 1] (10 µM),inactive: 0,inactive: 0,inactive: 0,inactive: 0,inactive: 0,inactive: 0,inactive: 0,inactive: 0,inactive: 0,inactive: 0,inactive: 0,inactive: 0,inactive: 0,inactive: 0,inactive: 0,inactive: 0,inactive: 0,inactive: 0,0,0
COC1(c2sc3c(N4CCOCC4)nc(-c4cnc(N)nc4)nc3c2C)COC1 (2.5 µM),inactive: 0,inactive: 0,inactive: 0,inactive: 0,inactive: 0,inactive: 0,inactive: 0,inactive: 0,inactive: 0,inactive: 0,inactive: 0,inactive: 0,inactive: 0,inactive: 0,inactive: 0,inactive: 0,inactive: 0,inactive: 0,0,0

# Some of the entries above, reformatted.
Structure (SMILES) | kinase-Nluc reporter destabilization hit call [1] | kinase-Nluc reporter destabilization hit call [2] | kinase-Nluc reporter destabilization hit call [3] | kinase-Nluc reporter destabilization hit call [4] | kinase-Nluc reporter destabilization hit call [5] | kinase-Nluc reporter destabilization hit call [6] | kinase-Nluc reporter destabilization hit call [7] | kinase-Nluc reporter destabilization hit call [8] | kinase-Nluc reporter destabilization hit call [9] | kinase-Nluc reporter destabilization hit call [10] | kinase-Nluc reporter destabilization hit call [11] | kinase-Nluc reporter destabilization hit call [12] | kinase-Nluc reporter destabilization hit call [13] | kinase-Nluc reporter destabilization hit call [14] | kinase-Nluc reporter destabilization hit call [15] | kinase-Nluc reporter destabilization hit call [16] | kinase-Nluc reporter destabilization hit call [17] | kinase-Nluc reporter destabilization hit call [18] | number of time points [19] | number of time points [20]
CC(C)(NS(=O)(=O)c1ccc2c(Cl)cnc(N=C(N)N)c2c1)C(=O)O (10 µM) | inactive: 0 | inactive: 0 | inactive: 0 | inactive: 0 | inactive: 0 | inactive: 0 | inactive: 0 | inactive: 0 | inactive: 0 | inactive: 0 | inactive: 0 | inactive: 0 | inactive: 0 | inactive: 0 | inactive: 0 | inactive: 0 | inactive: 0 | inactive: 0 | 0 | 0
Cc1ccc(S(=O)(=O)/C=C/C#N)cc1 (10 µM) | inactive: 0 | inactive: 0 | inactive: 0 | inactive: 0 | inactive: 0 | inactive: 0 | inactive: 0 | inactive: 0 | inactive: 0 | inactive: 0 | inactive: 0 | inactive: 0 | inactive: 0 | inactive: 0 | inactive: 0 | inactive: 0 | inactive: 0 | inactive: 0 | 0 | 0
